doi:10.1101/2022.10.06.511211
Results are given in words; binding and its absence hold for the method and conditions named. Binding seen in cells or lysates may run through a third protein. These calls come from enrichment with a bait or labelling near it, and not all partners need be listed.

The chains behind the UniProt entries cited, without tags or fusion partners.
UniProt Q9WTU3, whole entry: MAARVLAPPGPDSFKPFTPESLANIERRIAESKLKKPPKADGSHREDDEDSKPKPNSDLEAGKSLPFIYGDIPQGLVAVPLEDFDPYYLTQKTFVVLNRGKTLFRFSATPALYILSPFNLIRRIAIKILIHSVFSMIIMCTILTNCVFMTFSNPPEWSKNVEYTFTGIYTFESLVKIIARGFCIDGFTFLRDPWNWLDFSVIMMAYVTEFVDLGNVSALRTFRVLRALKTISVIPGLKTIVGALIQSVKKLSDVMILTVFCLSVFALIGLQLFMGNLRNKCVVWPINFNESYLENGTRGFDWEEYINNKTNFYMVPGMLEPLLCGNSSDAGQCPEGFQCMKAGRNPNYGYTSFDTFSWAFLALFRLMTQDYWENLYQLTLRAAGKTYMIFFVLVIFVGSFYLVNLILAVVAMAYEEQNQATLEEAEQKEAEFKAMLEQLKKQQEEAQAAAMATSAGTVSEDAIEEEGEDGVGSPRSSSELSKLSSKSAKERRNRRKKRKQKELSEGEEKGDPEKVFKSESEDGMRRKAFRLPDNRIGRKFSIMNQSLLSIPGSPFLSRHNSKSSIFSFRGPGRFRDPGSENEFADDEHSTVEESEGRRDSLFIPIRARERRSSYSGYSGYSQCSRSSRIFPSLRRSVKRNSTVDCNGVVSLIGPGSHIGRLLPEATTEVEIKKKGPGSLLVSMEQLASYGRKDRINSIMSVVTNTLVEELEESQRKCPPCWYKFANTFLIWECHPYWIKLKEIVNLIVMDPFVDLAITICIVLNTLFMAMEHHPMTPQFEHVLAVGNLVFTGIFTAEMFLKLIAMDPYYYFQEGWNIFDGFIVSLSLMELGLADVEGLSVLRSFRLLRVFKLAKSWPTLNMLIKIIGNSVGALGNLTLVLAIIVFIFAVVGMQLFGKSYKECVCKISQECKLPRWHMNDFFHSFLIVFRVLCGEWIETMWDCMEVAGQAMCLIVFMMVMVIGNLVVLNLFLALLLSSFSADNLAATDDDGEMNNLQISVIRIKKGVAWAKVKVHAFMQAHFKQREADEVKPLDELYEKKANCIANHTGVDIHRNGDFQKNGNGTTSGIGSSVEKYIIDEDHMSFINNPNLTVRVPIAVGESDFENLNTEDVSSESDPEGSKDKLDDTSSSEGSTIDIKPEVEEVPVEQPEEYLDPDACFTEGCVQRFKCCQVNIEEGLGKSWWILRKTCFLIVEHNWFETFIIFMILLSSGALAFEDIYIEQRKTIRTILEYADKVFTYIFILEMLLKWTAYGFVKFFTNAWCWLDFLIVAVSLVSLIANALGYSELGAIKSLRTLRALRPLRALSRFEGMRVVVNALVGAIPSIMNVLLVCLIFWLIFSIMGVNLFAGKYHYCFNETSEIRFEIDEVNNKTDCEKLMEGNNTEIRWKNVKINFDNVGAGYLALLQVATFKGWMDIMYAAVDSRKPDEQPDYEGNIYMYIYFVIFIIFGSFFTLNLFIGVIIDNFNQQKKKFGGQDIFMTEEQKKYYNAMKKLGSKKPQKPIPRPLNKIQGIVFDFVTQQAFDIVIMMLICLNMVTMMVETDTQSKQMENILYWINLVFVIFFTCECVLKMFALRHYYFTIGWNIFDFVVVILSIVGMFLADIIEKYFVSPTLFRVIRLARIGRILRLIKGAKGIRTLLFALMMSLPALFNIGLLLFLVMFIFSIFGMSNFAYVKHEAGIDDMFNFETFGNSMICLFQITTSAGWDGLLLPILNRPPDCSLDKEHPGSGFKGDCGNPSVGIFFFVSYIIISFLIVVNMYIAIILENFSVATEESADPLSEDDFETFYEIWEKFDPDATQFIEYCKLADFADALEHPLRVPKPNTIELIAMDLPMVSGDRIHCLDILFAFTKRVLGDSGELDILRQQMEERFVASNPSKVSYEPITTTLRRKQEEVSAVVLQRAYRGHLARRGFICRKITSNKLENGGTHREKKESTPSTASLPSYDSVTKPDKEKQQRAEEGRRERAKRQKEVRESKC
UniProt B1AWN6, whole entry: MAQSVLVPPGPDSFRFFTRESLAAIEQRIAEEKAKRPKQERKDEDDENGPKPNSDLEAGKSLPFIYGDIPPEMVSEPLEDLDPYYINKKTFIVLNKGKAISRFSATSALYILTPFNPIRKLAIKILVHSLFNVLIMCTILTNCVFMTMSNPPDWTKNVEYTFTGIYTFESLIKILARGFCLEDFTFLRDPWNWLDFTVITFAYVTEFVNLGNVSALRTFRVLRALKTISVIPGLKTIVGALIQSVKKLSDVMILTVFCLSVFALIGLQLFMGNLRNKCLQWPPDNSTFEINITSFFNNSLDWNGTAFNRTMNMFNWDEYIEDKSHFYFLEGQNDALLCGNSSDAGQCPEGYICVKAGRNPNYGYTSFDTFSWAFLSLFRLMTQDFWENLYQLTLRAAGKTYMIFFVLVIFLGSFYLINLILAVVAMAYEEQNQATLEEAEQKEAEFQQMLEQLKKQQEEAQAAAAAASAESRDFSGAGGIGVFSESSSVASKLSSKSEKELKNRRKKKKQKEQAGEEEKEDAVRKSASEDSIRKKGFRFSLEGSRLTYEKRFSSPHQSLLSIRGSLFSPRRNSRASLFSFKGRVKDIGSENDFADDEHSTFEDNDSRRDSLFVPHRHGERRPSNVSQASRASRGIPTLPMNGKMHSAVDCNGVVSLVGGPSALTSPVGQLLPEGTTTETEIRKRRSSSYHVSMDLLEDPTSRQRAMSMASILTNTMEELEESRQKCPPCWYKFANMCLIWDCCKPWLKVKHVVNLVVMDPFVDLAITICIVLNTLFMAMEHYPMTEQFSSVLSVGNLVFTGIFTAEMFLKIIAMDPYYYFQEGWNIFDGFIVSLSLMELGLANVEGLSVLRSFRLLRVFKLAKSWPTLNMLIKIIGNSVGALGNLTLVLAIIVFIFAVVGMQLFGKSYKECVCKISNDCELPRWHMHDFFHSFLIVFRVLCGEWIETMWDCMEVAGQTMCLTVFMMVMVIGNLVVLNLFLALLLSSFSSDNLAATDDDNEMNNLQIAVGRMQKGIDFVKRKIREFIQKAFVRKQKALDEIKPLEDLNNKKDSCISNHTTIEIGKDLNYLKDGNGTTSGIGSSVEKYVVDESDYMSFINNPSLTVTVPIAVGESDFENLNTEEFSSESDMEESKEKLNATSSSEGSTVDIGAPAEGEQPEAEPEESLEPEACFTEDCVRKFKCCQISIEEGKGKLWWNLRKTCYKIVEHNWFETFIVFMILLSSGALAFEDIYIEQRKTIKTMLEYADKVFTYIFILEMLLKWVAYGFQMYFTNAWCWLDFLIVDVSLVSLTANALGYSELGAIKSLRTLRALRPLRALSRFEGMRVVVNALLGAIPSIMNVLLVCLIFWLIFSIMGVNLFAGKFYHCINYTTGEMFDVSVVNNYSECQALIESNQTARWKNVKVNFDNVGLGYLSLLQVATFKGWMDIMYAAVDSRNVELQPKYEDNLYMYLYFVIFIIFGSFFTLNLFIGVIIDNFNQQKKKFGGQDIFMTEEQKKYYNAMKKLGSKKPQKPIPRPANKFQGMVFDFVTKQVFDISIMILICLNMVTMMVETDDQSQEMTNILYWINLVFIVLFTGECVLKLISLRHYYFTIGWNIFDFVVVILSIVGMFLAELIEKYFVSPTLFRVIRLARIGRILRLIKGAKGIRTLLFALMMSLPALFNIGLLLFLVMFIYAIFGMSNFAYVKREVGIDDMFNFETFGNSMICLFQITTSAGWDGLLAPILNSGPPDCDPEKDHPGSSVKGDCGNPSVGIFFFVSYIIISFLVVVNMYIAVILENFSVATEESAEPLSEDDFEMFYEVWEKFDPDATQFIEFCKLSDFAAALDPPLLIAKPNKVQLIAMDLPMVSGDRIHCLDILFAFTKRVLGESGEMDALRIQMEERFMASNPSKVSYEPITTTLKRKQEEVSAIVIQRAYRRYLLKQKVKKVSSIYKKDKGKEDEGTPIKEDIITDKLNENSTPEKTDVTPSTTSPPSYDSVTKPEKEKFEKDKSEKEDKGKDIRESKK

Assays:
[1] = biological target: Scn8a (mouse, endogenous, TurboID-HA knock-in) (mouse (endogenous in forebrain)) (UniProt Q9WTU3); assay: proximity labelling
[2] = biological target: Scn2a (mouse, endogenous, TurboID-HA knock-in) (mouse (endogenous in forebrain)) (UniProt B1AWN6); assay: proximity labelling

binding [1]	binding [2]	Substance
binds	binds	Mical3 (from UniProt Q8CJ19 1-1993)
–	binds	Nav3 (from UniProt Q80TN7 1-2359)
–	binds	Scn1b (from UniProt P97952 19-218)
binds	binds	Itsn1 (from UniProt Q9Z0R4 1-1714)
